This assay deals with T1, GST fusion protein of Livin β (human) (UniProt Q96CA5).
T1 sequence (looked up): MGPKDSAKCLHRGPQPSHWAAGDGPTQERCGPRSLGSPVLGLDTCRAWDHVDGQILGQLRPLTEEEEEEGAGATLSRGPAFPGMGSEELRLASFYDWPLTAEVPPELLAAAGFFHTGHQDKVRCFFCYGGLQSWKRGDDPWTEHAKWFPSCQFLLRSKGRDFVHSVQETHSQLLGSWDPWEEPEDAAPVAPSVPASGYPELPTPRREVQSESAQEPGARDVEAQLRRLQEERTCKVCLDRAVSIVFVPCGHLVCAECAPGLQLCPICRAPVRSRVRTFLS
Kind of assay: GST pull-down at equimolar concentrations, silver stain of supernatants (FIG. 4).

These are yes or no findings as the source states them, for the method shown. Binding seen in cells or lysates may run through a third protein. A result given as binding can be weak or reduced; the word gives no strength. Sequences can lack the tags named with a protein.

Take “C-terminal (His)9-tagged mature form Smac polypeptide (wild type) (ligand)”: the binding result is reported as “binds”.

For the origin of these results see patent US20060019335A1, “Compositions and methods to promote c-IAP autodegradation” (priority 2004, published 2006).
